Assay results from the supplement of paper PMC7661543.
The effect of the compound repeats well; differences between the knockouts mostly do not.

Columns and labels:
Experiment in all cases: relative cell number vs DMSO control (72 h) (% of DMSO); higher = less growth inhibition (more cells)
ZR-75-1 = tested on: ZR-75-1
Description: (§1)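 QMAP-Seq: a pool of 5 breast cancer cell lines (ZR-75-1, SKBR3, HCC-38, MDA-MB-231, BT-20), each carrying 12 doxycycline-inducible Cas9 sgRNA perturbations (11 knockouts plus non-targeting sgNT), was treated with compounds for 72 h at four 10-fold doses (10 nM-10 uM or 1 nM-1 uM range). Barcodes were amplified and sequenced, and cell number was interpolated from 293T spike-in standard curves. The result is expressed as % of the median of DMSO wells. Two biological replicates.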

MDA-MB-231 = tested on: MDA-MB-231
Description: as §1

SKBR3 = tested on: SKBR3
Description: as §1

CCOC(=O)CCNc1cc(N2CCc3ccccc3CC2)nc(-c2ccccn2)n1 [GSKJ4]
relative cell number
Conditions	MDA-MB-231	SKBR3	ZR-75-1
sgRNA knockout: sgATF3, 10 nM	121	98.8	105
sgRNA knockout: sgATF3, 100 nM	107	101	94.2
sgRNA knockout: sgATF3, 1000 nM	92.5	93.5	97.7
sgRNA knockout: sgATF3, 10000 nM	30.4	86.6	27.9
sgRNA knockout: sgATF4, 10 nM	100	94.1	145
sgRNA knockout: sgATF4, 100 nM	126	97.1	139
sgRNA knockout: sgATF4, 1000 nM	87.9	101	71.9
sgRNA knockout: sgATF4, 10000 nM	51.5	71.1	38.7
sgRNA knockout: sgATF6, 10 nM	125	74.2	70.8
sgRNA knockout: sgATF6, 100 nM	121	93.2	106
sgRNA knockout: sgATF6, 1000 nM	78.6	93.8	98.06
sgRNA knockout: sgATF6, 10000 nM	35.1	78.1	38.4
sgRNA knockout: sgATG7, 10 nM	88.6	107	96.3
sgRNA knockout: sgATG7, 100 nM	118	80	91.7
sgRNA knockout: sgATG7, 1000 nM	74.7	98.1	120
sgRNA knockout: sgATG7, 10000 nM	35.8	76.1	21.2
sgRNA knockout: sgERN1, 10 nM	88.7	109	104
sgRNA knockout: sgERN1, 100 nM	103	89.8	98.3
sgRNA knockout: sgERN1, 1000 nM	96.7	101	87.4
sgRNA knockout: sgERN1, 10000 nM	40.9	116	46.1
sgRNA knockout: sgHSF1, 10 nM	92.7	88.8	–
sgRNA knockout: sgHSF1, 100 nM	121	81.64	–
sgRNA knockout: sgHSF1, 1000 nM	85.3	84.5	–
sgRNA knockout: sgHSF1, 10000 nM	34.2	94	–
sgRNA knockout: sgHSF2, 10 nM	97.8	79.5	94.2
sgRNA knockout: sgHSF2, 100 nM	131	107	85.2
sgRNA knockout: sgHSF2, 1000 nM	96.4	110	118
sgRNA knockout: sgHSF2, 10000 nM	47.2	110	28.4
sgRNA knockout: sgKEAP1, 10 nM	77.9	88.5	–
sgRNA knockout: sgKEAP1, 100 nM	112	89.9	–
sgRNA knockout: sgKEAP1, 1000 nM	88.5	88.4	–
sgRNA knockout: sgKEAP1, 10000 nM	49.4	101	–
sgRNA knockout: sgNFE2L2, 10 nM	99.8	91.8	92.4
sgRNA knockout: sgNFE2L2, 100 nM	104	104	145.3
sgRNA knockout: sgNFE2L2, 1000 nM	91.4	85.7	95.2
sgRNA knockout: sgNFE2L2, 10000 nM	39.5	90.9	32.9
sgRNA knockout: sgSLC35F2, 10 nM	98.4	103.37	72.3
sgRNA knockout: sgSLC35F2, 100 nM	100.6	98.5	101
sgRNA knockout: sgSLC35F2, 1000 nM	102	102	110
sgRNA knockout: sgSLC35F2, 10000 nM	33.7	84.2	37.9
sgRNA knockout: sgXBP1, 10 nM	110	106	112
sgRNA knockout: sgXBP1, 100 nM	128	129	107
sgRNA knockout: sgXBP1, 1000 nM	103	92.2	118
sgRNA knockout: sgXBP1, 10000 nM	39.3	64.6	32.2

C=CC[C@@H]1/C=C(\C)C[C@H](C)C[C@H](OC)[C@H]2O[C@@](O)(C(=O)C(=O)N3CCCC[C@H]3C(=O)O[C@H](/C(C)=C/[C@@H]3CC[C@@H](O)[C@H](OC)C3)[C@H](C)[C@@H](O)CC1=O)[C@H](C)C[C@@H]2OC [Tacrolimus]
relative cell number
Conditions	MDA-MB-231	SKBR3	ZR-75-1
sgRNA knockout: sgATF3, 10 nM	110	129	89
sgRNA knockout: sgATF3, 100 nM	137	110	113
sgRNA knockout: sgATF3, 1000 nM	107	108	101
sgRNA knockout: sgATF3, 10000 nM	127	125	123
sgRNA knockout: sgATF4, 10 nM	159	96.5	106
sgRNA knockout: sgATF4, 100 nM	140	88.7	99.5
sgRNA knockout: sgATF4, 1000 nM	152	101	117
sgRNA knockout: sgATF4, 10000 nM	154	94.1	174
sgRNA knockout: sgATF6, 10 nM	130	105	141
sgRNA knockout: sgATF6, 100 nM	113	87.6	102
sgRNA knockout: sgATF6, 1000 nM	99	90.5	120
sgRNA knockout: sgATF6, 10000 nM	89.6	73.3	142
sgRNA knockout: sgATG7, 10 nM	109	114	85.6
sgRNA knockout: sgATG7, 100 nM	120	97.4	106
sgRNA knockout: sgATG7, 1000 nM	110	106	114
sgRNA knockout: sgATG7, 10000 nM	104	104	97.8
sgRNA knockout: sgERN1, 10 nM	94.9	128	97
sgRNA knockout: sgERN1, 100 nM	101	114	85.8
sgRNA knockout: sgERN1, 1000 nM	119	101	110
sgRNA knockout: sgERN1, 10000 nM	120.4	119	105
sgRNA knockout: sgHSF1, 10 nM	116	103	–
sgRNA knockout: sgHSF1, 100 nM	118	80.4	–
sgRNA knockout: sgHSF1, 1000 nM	90.8	90.97	–
sgRNA knockout: sgHSF1, 10000 nM	117	79.9	–
sgRNA knockout: sgHSF2, 10 nM	109	93.4	88.1
sgRNA knockout: sgHSF2, 100 nM	122	81.1	93.7
sgRNA knockout: sgHSF2, 1000 nM	88.5	91.2	121
sgRNA knockout: sgHSF2, 10000 nM	106	99.8	103
sgRNA knockout: sgKEAP1, 10 nM	122	83.9	–
sgRNA knockout: sgKEAP1, 100 nM	107	81.9	–
sgRNA knockout: sgKEAP1, 1000 nM	99.7	81.7	–
sgRNA knockout: sgKEAP1, 10000 nM	104	85.7	–
sgRNA knockout: sgNFE2L2, 10 nM	118	121	117
sgRNA knockout: sgNFE2L2, 100 nM	111	94.3	113
sgRNA knockout: sgNFE2L2, 1000 nM	118	110	117
sgRNA knockout: sgNFE2L2, 10000 nM	116	115	144
sgRNA knockout: sgSLC35F2, 10 nM	109	124	115
sgRNA knockout: sgSLC35F2, 100 nM	117	70.7	115
sgRNA knockout: sgSLC35F2, 1000 nM	124	90.2	147
sgRNA knockout: sgSLC35F2, 10000 nM	122.2	79.9	121
sgRNA knockout: sgXBP1, 10 nM	120	139	111
sgRNA knockout: sgXBP1, 100 nM	112	109	99.6
sgRNA knockout: sgXBP1, 1000 nM	122	98.3	110
sgRNA knockout: sgXBP1, 10000 nM	115	133	113
